Laboratory results taken from patent US7199138B2, “Substituted anthranilamides for controlling invertebrate pests” (E. I. du Pont de Nemours and Company, priority 2001, dated 2007).
Some of these results come from one statement about several compounds together. At least one compound was matched to its structure with a doubt left.

Key:
Type in all cases: in vivo
[1] = system: diamondback moth (Plutella xylostella); assay: Test A: control of diamondback moth, foliar spray on radish plant; conditions: sprayed at 50 ppm; radish plant pre-infested with neonate larvae; 6 days at 25° C.; visually assessed
[2] = system: fall armyworm (Spodoptera frugiperda); assay: Test B: control of fall armyworm, foliar spray on corn (maize) plant; conditions: sprayed at 50 ppm; corn (maize) plant pre-infested with 1-day-old larvae; 6 days; visually rated
[3] = system: beet armyworm (Spodoptera exigua); assay: Test D: control of beet armyworm, foliar spray on corn plant; conditions: sprayed at 50 ppm; corn plant pre-infested with 1-day-old larvae; 6 days; visually rated
[4] = system: tobacco budworm (Heliothis virescens); assay: Test C: control of tobacco budworm, foliar spray on cotton plant; conditions: sprayed at 50 ppm; cotton plant pre-infested with 2-day-old larvae; 6 days; visually rated

Compound: Cc1cccc(C(=O)NC(C)C)c1NC(=O)c1cc(C(F)(F)F)nn1-c1ccccc1CN [Compound 2]
- feeding damage (excellent levels of plant protection) [1]: ≤ 20%
- feeding damage (excellent levels of plant protection) [2]: ≤ 20%

Compound: Cc1cccc(C(=O)NC(C)C)c1NC(=O)c1cc(C(F)(F)F)nn1-c1ccccc1CO [Compound 4]
- feeding damage (excellent levels of plant protection) [1]: ≤ 20%
- feeding damage (excellent levels of plant protection) [2]: ≤ 20%

Compound: Cc1cc(N)cc(C(=O)NC(C)C)c1NC(=O)c1cc(C(F)(F)F)nn1-c1ccccc1Cl [Compound 25]
- feeding damage (excellent levels of plant protection) [1]: ≤ 20%
- feeding damage (excellent levels of plant protection) [2]: ≤ 20%
- feeding damage (excellent levels of plant protection) [3]: ≤ 20%
- feeding damage (excellent levels of plant protection) [4]: ≤ 20%

Compound: Cc1cc(NC(=O)N(C)C)cc(C(=O)NC(C)C)c1NC(=O)c1cc(C(F)(F)F)nn1-c1ccccc1Cl [Compound 26]
- feeding damage (excellent levels of plant protection) [1]: ≤ 20%
- feeding damage (excellent levels of plant protection) [2]: ≤ 20%
- feeding damage (excellent levels of plant protection) [4]: ≤ 20%

Compound: Cc1cc(NC(N)=O)cc(C(=O)NC(C)C)c1NC(=O)c1cc(C(F)(F)F)nn1-c1ccccc1Cl [Compound 27]
- feeding damage (excellent levels of plant protection) [2]: ≤ 20%
- feeding damage (excellent levels of plant protection) [4]: ≤ 20%
